Experimental data from patent US20080191164A1, “Method For the Treatment of a Material Other Than the Human Body” (priority 2005, published 2008).

Assays:
[1] = Degreasing of steel sheets, cotton pad test; set-up: key: 1: visible residual presence of a thin greasy film; 2: visible residual presence of small greasy spots; 3: visible absence of fatty substance (degreased sheet); conditions: steel sheet, cotton pad applied twice, rinsed with cold water
[2] = Degreasing of steel sheets, cotton pad test; set-up: key: 1: visible residual presence of a thin greasy film; 2: visible residual presence of small greasy spots; 3: visible absence of fatty substance (degreased sheet); conditions: steel sheet, cotton pad applied twice, rinsed with cold water; remark: listed apart in the source
[3] = Degreasing of steel sheets, cotton pad test; set-up: key: 1: visible residual presence of a thin greasy film; 2: visible residual presence of small greasy spots; 3: visible absence of fatty substance (degreased sheet); conditions: steel sheet, cotton pad applied twice, rinsed with cold water; remark: listed apart in the source
[4] = Degreasing of steel sheets, cotton pad test; set-up: key: 1: visible residual presence of a thin greasy film; 2: visible residual presence of small greasy spots; 3: visible absence of fatty substance (degreased sheet); conditions: steel sheet, cotton pad applied twice, rinsed with cold water; remark: listed apart in the source
[5] = Overall grade as degreasing composition; conditions: from number of the 9 fatty substances with grade 3
[6] = Degreasing of steel sheets, cotton pad test; set-up: key: 1: visible residual presence of a thin greasy film; 2: visible residual presence of small greasy spots; 3: visible absence of fatty substance (degreased sheet); conditions: steel sheet, cotton pad applied twice, rinsed with cold water; remark: listed apart in the source
[7] = Degreasing of steel sheets, cotton pad test; set-up: key: 1: visible residual presence of a thin greasy film; 2: visible residual presence of small greasy spots; 3: visible absence of fatty substance (degreased sheet); conditions: steel sheet, cotton pad applied twice, rinsed with cold water; remark: listed apart in the source
[8] = Degreasing of steel sheets, cotton pad test; set-up: key: 1: visible residual presence of a thin greasy film; 2: visible residual presence of small greasy spots; 3: visible absence of fatty substance (degreased sheet); conditions: steel sheet, cotton pad applied twice, rinsed with cold water; remark: listed apart in the source
[9] = Degreasing of steel sheets, cotton pad test; set-up: key: 1: visible residual presence of a thin greasy film; 2: visible residual presence of small greasy spots; 3: visible absence of fatty substance (degreased sheet); conditions: steel sheet, cotton pad applied twice, rinsed with cold water; remark: listed apart in the source

Row | Structure (SMILES) | degreasing grade FS 4 [1] | degreasing grade FS 6 [2] | degreasing grade FS 7 [3] | degreasing grade FS 9 [4] | OVERALL GRADE (/10) [5] | degreasing grade FS 8 [6] | degreasing grade FS 2 [7] | degreasing grade FS 1 [8] | degreasing grade FS 3 [9]
1 | CCOC(=O)C(C)O (stereo not drawn) [Composition 4, ethyl lactate] | 3 | 3 | 3 | 3 | 8 /10 | 2 | 3 | 3 | 3
2 | C=C(C)[C@H]1CC=C(C)CC1 [Composition 3, dipentene] | 3 | 3 | 3 | 3 | 9 /10 | 2 | 3 | 3 | 3
3 | ClC=C(Cl)Cl [Composition 1, trichloroethylene] | 3 | 3 | 3 | 3 | 10 /10 | 3 | 3 | 3 | 3
4 | ClCCl [Composition 2, dichloromethane] | 3 | 3 | 3 | 3 | 10 /10 | 3 | 3 | 3 | 3
5 | CO[C@H]1CO[C@H]2[C@@H]1OC[C@H]2OC [Composition 5, dimethyl isosorbide] | 3 | 2 | 3 | 3 | 6 /10 | 2 | 3 | 3 | 2
